The numbers were not newly measured in paper PMC8620791, “Inhibitory Effects of Sulfonamide Derivatives on the β-Carbonic Anhydrase (MpaCA) from Malassezia pachydermatis, a Commensal, Pathogenic Fungus Present in Domestic Animals” (International Journal of Molecular Sciences, 2021), which cites them from elsewhere.

Each structure is given as a SMILES string. Several values for one entry are separate records, joined by “and”; a condition that tells them apart may be missing. Identical values can stand only once.

The term Ki denotes a measure of affinity in units of concentration, obtained from inhibition or displacement.

One series has as its target MreCA. The arrangement: method as in PMID 31963335. To be noted: stopped-flow CO2 hydration; given for comparison; ref [26]; cited from earlier work.
Another series deals with MgCA. Also on record: method as in PMID 31963335. Conditions: stopped-flow CO2 hydration; given for comparison; ref [26]; cited from earlier work.

Consider `CCN[C@H]1C[C@H](C)S(=O)(=O)c2sc(S(N)(=O)=O)cc21` [DZA, Dorzolamide, reference compound], for which the inhibition constant (Ki) on MreCA was < 1000 nM and 810 nM; on MgCA it was more than 10000 nM.
